Some of the results follow. Shown are side measurements of this screen, not its main read-out; they come without a call. Most of these compounds were active or inconclusive in the main read-out, so they are no random draw. Potencies come from curve fits of mixed quality, noted in brackets.
Assay: qHTS Assay for Modulators of Lamin A Splicing
Settings: HeLa LMNA splicing GFP/RFP minigene ratio, 48 h
Outline: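 Read-out is the ratio of GFP to DsRed2 object intensity, acquired by 488 nm laser-scanning cytometry on HeLa lamin A-EGFP minigene reporter cells. Compound incubation 48 hrs at 37 °C in Opti-MEM with 2% FBS; DMSO 0.5% final.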

[1] = measured here: GFP splicing reporter channel
[2] = measured here: RFP viability control channel

| Structure (SMILES) | AC50 [1] | AC50 [2] |
| --- | --- | --- |
| CCC(C)(C)NC(=O)C1CCN(c2nc(OC)nc(OC)n2)CC1 | 0.158 µM [rising, full curve, poor fit] | – |
| CCOc1ccc(NS(=O)(=O)c2cc(NC(=O)c3ccc(C)cc3)ccc2Cl)cc1 | – | 7.08 µM [rising, partial curve] |
| CCCCN(C)C(=O)CN1C(=O)CCn2nc(-c3cn(C)c4ccccc34)cc21 | 0.0447 µM [falling, full curve, poor fit] | – |
| CN1CCN(Cc2cc(Cl)c3cccnc3c2OC(=O)c2cccs2)CC1 | 1.78 µM [rising, single point] | 11.2 µM [rising, partial curve] |
| CC1Cc2ccccc2N1C(=O)c1ccc(N2CCCCC2)c([N+](=O)[O-])c1 (configuration not stated) | – | 15.8 µM [rising, single point] |
| COc1ccc(C(=O)C2CCCN(C(=O)Cc3c(C)noc3C)C2)cc1OC (configuration not stated) | 0.0251 µM [falling, full curve, poor fit] | 0.398 µM [falling, full curve, poor fit] |
| CCc1cccc(NC(=O)c2nc(-c3ccncc3)no2)c1 | – | 0.2 µM [falling, full curve] |
| CCN1C(=O)c2cccc3c(S(=O)(=O)Nc4ccccn4)ccc1c23 | 6.31 µM [falling, partial curve, poor fit] | – |
| Cc1ccc(-n2c(C)cc(C(=O)CSc3nnc4ccccn34)c2C)cc1 | 11.2 µM [rising, partial curve] | 14.1 µM [rising, partial curve] |
| COCC(=O)Nc1cc(Cl)ccc1C | 1.26 µM [rising, single point] | 0.794 µM [rising, single point] |
| CCOC(=O)Cc1nnc2c(Nc3ccccc3F)nc3nonc3n12 | 12.6 µM [rising, single point] | 15.8 µM [rising, single point] |
| CCOC(=O)c1cccc(NC(=O)CN(c2ccc(OC)cc2)S(=O)(=O)c2c(C)noc2C)c1 | 22.4 µM [rising, single point] | 31.6 µM [rising, single point] |
| O=C(CCc1nc(-c2ccc(Cl)cc2)no1)NCC1CCCO1 (configuration not stated) | 11.2 µM [falling, single point] | 14.1 µM [falling, single point] |
| COc1ccc(-c2nc3c(c4c2C[C@H](c2ccccc2)OC4)CN(C(=O)c2ccco2)CC3)c(C)c1 | – | 0.178 µM [falling, full curve, poor fit] |
| COc1cc2c(cc1OC)CN(C(=O)c1cc3ccccc3oc1=O)CC2 | – | 31.6 µM [rising, single point] |

In another format: results already given.
Structure (SMILES)	AC50 [1]	AC50 [2]
Cc1ccc(-n2c(C)cc(C(=O)CSc3nnc4ccccn34)c2C)cc1	11.2 µM [rising, partial curve]	14.1 µM [rising, partial curve]
COCC(=O)Nc1cc(Cl)ccc1C	1.26 µM [rising, single point]	0.794 µM [rising, single point]

From PubChem BioAssay AID1487 (National Center for Advancing Translational Sciences (NCATS), 2009)
